Some entries share one result that the patent states for a list of compounds.
Test: Intrinsic dissolution rate (static disc method, USP XXII apparatus No 2)
Assay type: physicochemical
Details: at the three pHs tested (1.2, 4.0, 7.5)
Procedure: Drug bioavailability studies have shown that an intrinsic dissolution rate (IDR) lower than 0.1 mg/cm^2/min can often be predictive of a dissolution rate-limited absorption in humans. Thus, IDR is a predictive parameter of bioavailability. This parameter depends upon various physicochemical properties including, the chemical form (salt, solvate), the crystal form, the solubility and wettability. The determination of IDR was performed in the following way. The Form to be tested was homogeneously ground and mixed with microcrystalline cellulose AVICEL PH102 (dry binder which improves tableting properties). The substance:excipient mix ratio was 70:30 (w/w). Aliquots (500 mg) were compressed into pellets by compression until a final applied load of 10 tons in order to obtain a constant and known surface area of zero porosity. The dissolution experiments were carried out at 37° C. using 500 ml of aqueous media at three different pH values intended to cover the expected range of human gastrointestinal pH values, i.e. 1.2, 4.0 and 7.5. […] Statistically assessed (p<0.05) linear portions of all replicate dissolution curves were selected for subsequent IDR calculation.

Row | SMILES | Intrinsic dissolution rate (IDR)
1 | Cl.Cl.O=C(O)COCCN1CCN(C(c2ccc(F)cc2)c2ccc(F)cc2)CC1 [Form B, 2-[2-[4-[bis(4-fluorophenyl)methyl]-1-piperazinyl]ethoxy]acetic acid dihydrochloride] | higher than 0.1 mg/cm^2/min
2 | Cl.Cl.O=C(O)COCCN1CCN(C(c2ccc(F)cc2)c2ccc(F)cc2)CC1 [Form A, 2-[2-[4-[bis(4-fluorophenyl)methyl]-1-piperazinyl]ethoxy]acetic acid dihydrochloride] | higher than 0.1 mg/cm^2/min

Source: patent US6335331B1, “Pseudopolymorphic forms of 2-[2-[4-[Bis (4-fluorophenyl) methyl]-1-piperazinyl]ethoxy]acetic acid dihydrochloride” (UCB, S.A., priority 1997, dated 2002)
